# Reference: PubChem BioAssay AID338 (DTP/NCI, 2004)
# The list is a part of this screen's results and no random one: it is rich in T/C values a quarter to a half above the control, in often repeated tests (any T/C) and in doses without a T/C. Other doses and runs of a compound stand elsewhere. T/C gives the treated animals as a percentage of the vehicle group. Some entries give survivors of the animals treated and no T/C: the source holds a T/C of zero for them, seemingly a mark for toxic or unscored doses. Some survivor counts are full or nearly so, which does not show that the dose was tolerated: the source hardly ever lists a survival T/C far under the control, and the zero likely stands for such cases as well. Counts of survivors are from the toxicity check (mostly the fifth day) where no day follows; animals may have died later. Schedule codes are those of the source, taken here to give the interval after Q, in days (D) or hours (H), and the number of doses after X. Some entries were tested several times; the results are listed from low to high. For survival time, the PubChem record calls one and a half times the control and up active, and a quarter to a half above the control has no call in these data; cut-offs in other NCI protocols can differ. Some schedules carry Z or #; the key to these is not given. Some T/C values are followed by the survivors on the day toxicity was checked, most often the fifth; where none is given, no animal had died by that day. Marks such as (2×) count equal records among those shown.
# System: BDF1 mice, P388 leukemia (terephthalanilide-resistant), survival T/C
# Test: NCI In Vivo Anticancer Drug Screen. Data for tumor model P388 Leukemia resistant to A Terephthalanilide; NSC 38280 (intraperitoneal) in B6D2F1 (BDF1) mice
# Conditions: T/C endpoint: median survival time, higher T/C = longer survival
# Procedure: The antitumor activity of compounds was measured in mice bearing transplantable tumors. Survival or tumor size were measured and the results are expressed as the measurement made in the treated group (T) divided by the measurement made in the vehicle treated control group (C). The tumor model used in this assay is P388 Leukemia resistant to A Terephthalanilide; NSC 38280 (intraperitoneal) in B6D2F1 (BDF1) mice
# [1] = dose: 250.0 mg/kg/injection, schedule: Q01DX010 (ip), vehicle: saline
# [2] = dose: 120.0 mg/kg/injection, schedule: Q01DX010 (ip), vehicle: saline
# [3] = dose: 128.0 mg/kg/injection, schedule: Q01DX010 (ip), vehicle: saline
# [4] = dose: 3.0 mg/kg/injection, schedule: Q01DX010 (ip), vehicle: saline
# [5] = dose: 125.0 mg/kg/injection, schedule: Q01DX010 (ip), vehicle: saline
# [6] = dose: 5.0 mg/kg/injection, schedule: Q01DX010 (ip), vehicle: saline
# [7] = dose: 10.0 mg/kg/injection, schedule: Q01DX010 (ip), vehicle: saline
# [8] = dose: 20.0 mg/kg/injection, schedule: Q01DX010 (ip), vehicle: saline
# [9] = dose: 40.0 mg/kg/injection, schedule: Q01DX010 (ip), vehicle: saline
# [10] = dose: 6.25 mg/kg/injection, schedule: Q01DX010 (ip), vehicle: saline
# [11] = dose: 25.0 mg/kg/injection, schedule: Q01DX010 (ip), vehicle: saline
# [12] = dose: 45.0 mg/kg/injection, schedule: Q01DX010 (ip), vehicle: saline
# [13] = dose: 100.0 mg/kg/injection, schedule: Q01DX010 (ip), vehicle: saline
# [14] = dose: 62.5 mg/kg/injection, schedule: Q01DX010 (ip), vehicle: saline
# [15] = dose: 31.3 mg/kg/injection, schedule: Q01DX010 (ip), vehicle: saline
# [16] = dose: 32.0 mg/kg/injection, schedule: Q01DX010 (ip), vehicle: saline
# [17] = dose: 50.0 mg/kg/injection, schedule: Q01DX010 (ip), vehicle: saline
# [18] = dose: 200.0 mg/kg/injection, schedule: Q01DX010 (ip), vehicle: saline
smiles,measurement,setting,value
O=C(Nc1ccc(NC(=O)Nc2ccc(C3=NCCN3)cc2)cc1)Nc1ccc(C2=NCCN2)cc1,T/C,"dose: 165.0 mg/kg/injection, schedule: Q01DX010 (ip), vehicle: saline",127 % of control
same,T/C,[1],138 % of control
same,T/C,"dose: 375.0 mg/kg/injection, schedule: Q01DX010 (ip), vehicle: saline",138 % of control
O=C(Nc1cccc(C(=O)Nc2ccc(C3=NCCN3)cc2)c1)c1ccc(C2=NCCN2)cc1,T/C,"dose: 54.0 mg/kg/injection, schedule: Q01DX010 (ip), vehicle: saline",145 % of control
same,survivor count,"dose: 80.0 mg/kg/injection, schedule: Q01DX010 (ip), vehicle: saline",1 of 6
same,survivor count,[2],0 of 6
same,survivor count,"dose: 180.0 mg/kg/injection, schedule: Q01DX010 (ip), vehicle: saline",0 of 6
CC[C@]1(O)C[C@H]2CN(CCc3c([nH]c4ccccc34)[C@@](C(=O)OC)(c3cc4c(cc3OC)N(C=O)[C@H]3[C@@](O)(C(=O)OC)[C@H](OC(C)=O)[C@]5(CC)C=CCN6CC[C@]43[C@@H]65)C2)C1,survivor count,"dose: 0.5 mg/kg/injection, schedule: Q01DX010 (ip), vehicle: saline",6 of 6
CCCCn1cnc2c(=S)nc[nH]c21,survivor count,"dose: 64.0 mg/kg/injection, schedule: Q01DX010 (ip), vehicle: saline",6 of 6
same,survivor count,[3],6 of 6
Nc1ncnc2[nH]ncc12,survivor count,[4],6 of 6
CCCCNc1ncnc2c1cnn2C,survivor count,[5],6 of 6
same,survivor count,[1],0 of 6
Nc1nc(=S)c2[nH]cnc2[nH]1,T/C,[6],131 and 143 % of control
same,T/C,[7],125 % of control
Cc1cc(N(CCCl)CCCl)ccc1N=Nc1ccccc1C(=O)O,T/C,[6],130 % of control
same,T/C,[7],125 and 127 % of control
same,T/C,[8],135 and 144 % of control
same,survivor count,[9],6 of 6
S=P(N1CCOCC1)(N1CC1)N1CC1,T/C,[7],126 and 127 % of control
same,T/C,[8],127 and 136 % of control
N=[N+]=CC(=O)OCC(N)C(=O)O (configuration not stated),T/C,"dose: 3.13 mg/kg/injection, schedule: Q01DX010 (ip), vehicle: saline",130 and 133 % of control
same,T/C,[10],144 and 145 % of control
same,survivor count,[11],5 of 6
COc1cc(-c2ccc(Nc3ccccc3C(=O)O)c(OC)c2)ccc1Nc1ccccc1C(=O)O,T/C,[12],129 and 136 % of control
same,T/C,"dose: 67.0 mg/kg/injection, schedule: Q01DX010 (ip), vehicle: saline",141 % of control
same,T/C,[13],129 % of control
same,survivor count,"dose: 150.0 mg/kg/injection, schedule: Q01DX010 (ip), vehicle: saline",1 of 6 and 5 of 6
CN(Cc1cnc2nc(N)nc(N)c2n1)c1ccc(C(=O)N[C@@H](CCC(=O)O)C(=O)O)cc1,T/C,"dose: 0.19 mg/kg/injection, schedule: Q01DX Z (ip), vehicle: saline",131 and 136 % of control
same,T/C,"dose: 0.38 mg/kg/injection, schedule: Q01DX010 (ip), vehicle: other",144 % of control
CN=C(NC)c1ccc(NC(=O)Nc2ccc(NC(=O)Nc3ccc(C(=NC)NC)cc3)cc2)cc1,survivor count,[12],1 of 6
CN(N=O)C(N)=O,T/C,[7],131 % of control
same,survivor count,[9],6 of 6
O=c1cn[nH]c(=O)[nH]1,survivor count,[14],6 of 6
same,survivor count,[5],6 of 6
same,survivor count,"dose: 500.0 mg/kg/injection, schedule: Q01DX010 (ip), vehicle: saline",6 of 6
O=C(O)CCCc1ccc(N(CCCl)CCCl)cc1,survivor count,[11],0 of 6 and 4 of 6
N#[N+]c1cnc([O-])[nH]c1=O,T/C,"dose: 2.5 mg/kg/injection, schedule: Q01DX010 (ip), vehicle: saline",127 % of control
same,T/C,[7],131 % of control [5 of 6 alive] (2×)
same,survivor count,[8],0 of 6
O=C1CCC(N2C(=O)c3ccccc3C2=O)C(=O)N1 (configuration not stated),T/C,[15],131 % of control
CN(C)CC(=O)c1ccc(O)c(O)c1,survivor count,"dose: 675.0 mg/kg/injection, schedule: Q01DX010 (ip), vehicle: saline",0 of 6
CCn1cnc2c(=S)nc[nH]c21,T/C,[5],133 % of control
CN(C)c1ccc(Nc2c3ccccc3nc3ccccc23)cc1,survivor count,[2],6 of 6
CCCNc1ncnc2[nH]ncc12,survivor count,[10],6 of 6
CN(C)c1ccc(/C=C/c2ccnc3ccccc23)cc1,survivor count,[9],5 of 6
CC/C(=C(/CC)c1ccc(O)cc1)c1ccc(O)cc1,survivor count,"dose: 25.0 mg/kg/injection, schedule: Q01DX010 (sc), vehicle: steroid suspending solution",6 of 6
same,survivor count,"dose: 50.0 mg/kg/injection, schedule: Q01DX010 (sc), vehicle: steroid suspending solution",6 of 6
same,survivor count,"dose: 100.0 mg/kg/injection, schedule: Q01DX010 (sc), vehicle: steroid suspending solution",6 of 6
CN=C(NC)c1ccc(NC(=O)c2ccc(C(=O)Nc3ccc(C(=NC)NC)cc3)c(Cl)c2)cc1,survivor count,[9],6 of 6
same,survivor count,"dose: 60.0 mg/kg/injection, schedule: Q01DX010 (ip), vehicle: saline",5 of 6
CC(=O)Nc1ccc2nc3ccc(NC(C)=O)cc3[n+](-c3ccccc3)c2c1,survivor count,[15],6 of 6
same,survivor count,[14],6 of 6
Nc1cc(C(=O)Nc2ccc(C3=NCCN3)cc2)cc(C(=O)Nc2ccc(C3=NCCN3)cc2)c1,T/C,[16],133 % of control
same,survivor count,[3],2 of 6
CS(=O)(=O)OCCCCOS(C)(=O)=O,survivor count,[17],4 of 6
N#CCSc1ncnc2nc[nH]c12,survivor count,[2],0 of 6
O=C1C(NC(=O)C2CCCCC2)=C(N2CC2)C(=O)C(NC(=O)C2CCCCC2)=C1N1CC1,survivor count,[11],6 of 6
same,survivor count,[17],6 of 6
same,survivor count,[13],6 of 6
CCCSc1ncnc2nc[nH]c12,T/C,[5],125 % of control
same,T/C,[1],131 % of control
CNc1nc(Nc2ccc(C3=NCCN3)cc2)nc(Nc2ccc(C3=NCCN3)cc2)n1,T/C,"dose: 13.3 mg/kg/injection, schedule: Q01DX010 (ip), vehicle: saline",140 % of control
same,T/C,"dose: 15.0 mg/kg/injection, schedule: Q01DX010 (ip), vehicle: saline",140 % of control
same,T/C,"dose: 30.0 mg/kg/injection, schedule: Q01DX010 (ip), vehicle: saline",140 % of control
C[C@H]1C(=O)O[C@@H]2CCN3CC=C(COC(=O)[C@](C)(O)[C@@]1(C)O)[C@H]23,survivor count,[10],6 of 6
S=P(N1CC1)(N1CC1)N1CC1,T/C,"dose: 1.5 mg/kg/injection, schedule: Q01DX010 (ip), vehicle: saline",125 % of control
same,T/C,[4],137 % of control
O=C(Nc1ccc(C2=NCCN2)cc1)c1cccc(C(=O)Nc2ccc(C3=NCCN3)cc2)c1,T/C,"dose: 16.0 mg/kg/injection, schedule: Q01DX010 (ip), vehicle: saline",125 % of control
same,T/C,[16],137 % of control
O=C(Nc1ccc(C2=NCCN2)cc1)c1ccc(C(=O)Nc2ccc(C3=NCCN3)cc2)c([N+](=O)[O-])c1,T/C,"dose: 12.0 mg/kg/injection, schedule: Q01DX010 (ip), vehicle: saline",125 % of control
O=c1cnn(C2OC(CO)C(O)C2O)c(=O)[nH]1 (configuration not stated),T/C,[18],125 % of control
same,T/C,"dose: 400.0 mg/kg/injection, schedule: Q01DX010 (ip), vehicle: saline",135 % of control
O=NN(CCCl)C(=O)NCCCl,survivor count,[17],5 of 6 and 6 of 6
OCC1OC(n2cnc3c(Cl)ncnc32)C(O)C1O (configuration not stated),survivor count,[14],6 of 6
same,survivor count,[5],6 of 6
c1ccc(CNc2ncnc3[nH]ncc23)cc1,survivor count,"dose: 8.0 mg/kg/injection, schedule: Q01DX010 (ip), vehicle: saline",6 of 6
CCN(CC)CCNc1ccc(C)c2sc3ccccc3c(=O)c12,T/C,[17],126 and 133 % of control
same,T/C,[13],127 % of control
same,survivor count,[18],6 of 6
O=C(Nc1ccc(C2=NCCN2)cc1)c1ccc(C(=O)Nc2ccc(C3=NCCN3)cc2)cc1,T/C,"dose: 112.0 mg/kg/injection, schedule: Q01DX010 (ip), vehicle: saline",133 % of control
same,T/C,[1],127 % of control
